For one molecule, binding results are on record in article PMC8017931.

These are yes or no findings as the source states them, for the method shown. In cells and extracts the contact can be indirect. For part of these data: Binding can be weak; no strength is given.

Common to all, as to assay: co-IP; lysates of HEK293T cells transfected with FLAG-tagged ARMC12 (full length or truncated); immunoprecipitation with anti-FLAG antibody; immunoblot for the endogenous partner
On the technique in general: A western blot detects proteins with antibodies after separation by electrophoresis.

The target in assay [1] is ARMC12 lacking the N terminus, FLAG-tagged (ΔN-FLAG) (mouse).
Assay [2] addresses ARMC12 without the ARM domain, FLAG-tagged (ΔARM-FLAG) (mouse).
The target of assay [3] is ARMC12 without the C terminus, FLAG-tagged (ΔC-FLAG) (mouse).

B1: TBC1D15 (endogenous, HEK293T) (protein, UniProt Q8TC07 1-691)
chain: MAAAGVVSGKIIYEQEGVYIHSSCGKTNDQDGLISGILRVLEKDAEVIVDWRPLDDALDSSSILYARKDSSSVVEWTQAPKERGHRGSEHLNSYEAEWDMVNTVSFKRKPHTNGDAPSHRNGKSKWSFLFSLTDLKSIKQNKEGMGWSYLVFCLKDDVVLPALHFHQGDSKLLIESLEKYVVLCESPQDKRTLLVNCQNKSLSQSFENLLDEPAYGLIQAGLLDRRKLLWAIHHWKKIKKDPYTATMIGFSKVTNYIFDSLRGSDPSTHQRPPSEMADFLSDAIPGLKINQQEEPGFEVITRIDLGERPVVQRREPVSLEEWTKNIDSEGRILNVDNMKQMIFRGGLSHALRKQAWKFLLGYFPWDSTKEERTQLQKQKTDEYFRMKLQWKSISQEQEKRNSRLRDYRSLIEKDVNRTDRTNKFYEGQDNPGLILLHDILMTYCMYDFDLGYVQGMSDLLSPLLYVMENEVDAFWCFASYMDQMHQNFEEQMQGMKTQLIQLSTLLRLLDSGFCSYLESQDSGYLYFCFRWLLIRFKREFSFLDILRLWEVMWTELPCTNFHLLLCCAILESEKQQIMEKHYGFNEILKHINELSMKIDVEDILCKAEAISLQMVKCKELPQAVCEILGLQGSEVTTPDSDVGEDENVVMTPCPTSAFQSNALPTLSASGARNDSPTQIPVSSDVCRLTPA
In the case of B1, the binding result in assay [1] is recorded as “no binding”; in assay [2] it was “binds”; in assay [3] it was “binds”.
